SMILES strings stand for the structures. This is one part of the list. These are further read-outs of the screen, such as a control signal, another cell line or another target. No call is given for them. The list favours compounds with an active or inconclusive main result.

The nature of the assay: Her2 expression decrease, cell viability multiplex – SKBR3 breast tumor cells, AlphaScreen, ATP viability, primary screen (AID 461).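 Also: percent of carrier control wells set as 100% viability.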 The conditions noted are these: SKBR3 Her2 protein level, 18-24 h, measured here: SKBR3 viability, ATP luminescence, at 10 µM. (Bead proximity is the source of the signal in Alpha formats.)
As usually defined, the viability is a read-out of living cells in per cent, often relative to untreated cells. In the case of `CN1C[C@H](CNC(=O)OCc2ccccc2)C[C@@H]2c3cccc4c3c(cn4C)C[C@H]21`, the viability came to 50.5%. As for `N=C(N)c1c(O)n(C2CCCCC2)c(=O)n(C2CCCCC2)c1=O`, the viability is 53.5%. The figure for `CC(C)OCCCNC(=O)c1c(N)n(Cc2cccs2)c2nc3ccccc3nc12` is 26%; for `Clc1ccc(COC(Cn2ccnc2)c2ccc(Cl)cc2Cl)cc1` (stereo unspecified) it is 123%.

Turning to `Cc1ccc2c(c1)[C@@H]1CN(C)CC[C@@H]1N2C(=O)Nc1cccc(C(F)(F)F)c1`, the viability is 67.5%. `CCCNC(=O)c1c(N)n(Cc2ccc3c(c2)OCO3)c2nc3ccccc3nc12`: the viability was determined as 102%. Take `O=C(CN1C2CCC1CC(O)(c1cccnc1)C2)Nc1ccc2c(c1)OCO2` (stereo unspecified): the viability was 72%.

In the case of `Cc1cccc(C2=NCC(=O)N(CC(=O)NCc3ccco3)c3sc4c(c32)CCCC4)c1`, the viability is 102%.

As for `O=c1[nH]c2ccccc2n1C1CCN(CCCC(c2ccc(F)cc2)c2ccc(F)cc2)CC1`, the viability worked out at 52.5%. As to `CCC(C)NC(=O)c1c(N)n(CC2CCCO2)c2nc3ccccc3nc12` (stereo unspecified), the viability is 93%.

Turning to `COc1ccc(CCn2c(O)c(C=NCc3cccnc3)c(=O)[nH]c2=O)cc1OC`, the viability came out at 63%.

Source of the values: PubChem BioAssay.
